The other results are listed elsewhere or left out. Further columns of the screen follow, without active or inactive calls. Most of these compounds were active or inconclusive in the main read-out, so they are no random draw. The note in brackets gives the kind of curve behind each potency; many fits are weak.
Assay: qHTS Assay for Lipid Storage Modulators in Drosophila S3 Cells;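 for cell number change: cells counted by Cell Tracker Red CMTPX staining in the red channel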
Details: BODIPY lipid droplet fluorescence, 18-24 h; for cell number change: measured here: cell count max response, cells fed with added oleic acid
How it was run: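 Drosophila S3 cells got compounds at several concentrations plus oleic acid (400 uM solution). Laser-scanning cytometry with 488 nm excitation read lipid droplets at 500-530 nm and cells at 575-640 nm. Percent activity was relative to 20 uM Triacsin C.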

[1] = measured here: cell number channel AC50, cells fed with added oleic acid
[2] = measured here: lipid fluorescence (Fed channel) AC50, cells fed with added oleic acid

Compound | cell number change | AC50 [1] | AC50 [2]
C/C(=N\Nc1nc(C)cc(C)n1)c1ccc(C)o1 | 35.1% | 29.1 µM [rising, single point] | 29.1 µM [rising, single point]
CCOC(=O)c1sc(NC(=O)c2ccc(C)o2)nc1C | 23.1% | 0.651 µM [rising, full curve, poor fit] | 1.84 µM [rising, full curve]
CCN(C(=O)CSc1ncn[nH]1)C1CCCCC1 | 37.4% | 0.146 µM [rising, full curve, poor fit] | 0.517 µM [falling, full curve]
O=C(Nc1cccc2ccccc12)N1CC=CCC1 | 21.3% |  | 29.1 µM [rising, single point]
COc1ccc(OC(=O)c2cccnc2)cc1 | -30.5% | 18.4 µM [falling, single point] | 
CCc1ccc(S(=O)(=O)NCC2(N3CCOCC3)CCCCC2)cc1 | -6.19% |  | 0.461 µM [rising, full curve, poor fit]
COc1ccc(C(=O)N[C@H](C(=O)Nc2nc3c(s2)CCCC3)C(C)C)cc1 | 13.2% |  | 6.51 µM [rising, full curve, poor fit]
CC(C)CC(NC(=O)c1cccs1)c1nnc(SCc2ccc(Cl)c(Cl)c2)n1C (centres undefined) | -20.2% |  | 16.4 µM [falling, single point]
Cn1c(C(=O)NCc2cccs2)cc2c(=O)n(C)c3ccccc3c21 | 15.5% |  | 32.6 µM [rising, single point]
Nc1c(S(=O)(=O)c2cccs2)c2nc3ccccc3nc2n1Cc1cccs1 | -14.1% |  | 
CCN(CC)CCN1C(=O)C(=O)/C(=C(/O)c2ccc(S(=O)(=O)N3CCOCC3)cc2)C1c1ccccc1 (centres undefined) | 14.7% |  | 0.116 µM [rising, full curve, poor fit]
O=C(CCS(=O)(=O)c1cccc2nonc12)Nc1cccc2c1CCCC2 | 33.4% | 29.1 µM [rising, single point] | 29.1 µM [rising, single point]
CC(Oc1ccc(Cl)cc1)C(=O)N(C)CC(=O)Nc1ccc(N2CCOCC2)cc1 (centres undefined) | 27% |  | 18.4 µM [rising, partial curve]
CCOC(=O)c1cc(-c2ccncc2)nc2c1c(C)nn2C | -83% | 16.4 µM [falling, single point] | 9.2 µM [rising, partial curve, poor fit]
Cc1cccc(/C=N\NC(=O)c2ccccc2-n2cccc2)c1 | -50.3% | 32.6 µM [falling, single point] | 29.1 µM [falling, single point]
COc1ccc(NC(=O)C2CCCN(c3nn4c(=O)cc(C)nc4s3)C2)c(OC)c1 (centres undefined) |  | 5.8 µM [falling, single point] | 
O=C(Nc1ccc(OC(F)(F)F)cc1)c1cnccn1 | -28.8% |  | 6.51 µM [rising, single point]
O=C(Cn1c(=O)[nH]c2ccsc2c1=O)N1CCN(c2ccc(F)cc2)CC1 | 36.1% |  | 29.1 µM [rising, single point]
Cc1cccc(N(C(=O)c2snc(C(N)=O)c2N)C(C(=O)NCC2CCCO2)c2ccc(N(C)C)cc2)c1C (centres undefined) | 24.8% |  | 
Cc1ccc(F)cc1NC(=O)C1CCN(c2cnccn2)CC1 | 4.15% | 0.0058 µM [rising, full curve, poor fit] | 
CN(C)S(=O)(=O)c1cccc(NC(=O)c2cc(=O)[nH]c(=O)[nH]2)c1 | 53.5% | 29.1 µM [rising, single point] | 
Cc1ccc(NC(=O)C2CCN(S(=O)(=O)c3cnc[nH]3)CC2)nc1 | -3.85% | 0.731 µM [falling, single point] | 
O=C(NCC(=O)N(CC1CCCO1)C(C(=O)NC1CCCC1)c1cccnc1)c1ccco1 (centres undefined) |  | 2.31 µM [rising, single point] | 
CC(=O)c1c(C)nc2ccccc2c1N | -10.8% | 0.731 µM [falling, full curve] | 3.26 µM [falling, full curve]
COc1ccccc1-n1cc(-c2ccc(C)cc2)[nH]c1=S | 8.45% |  | 2.59 µM [rising, single point]
Cc1ccsc1C(=O)N(Cc1nnc(-c2ccccc2Cl)o1)C1CC1 | 34.5% | 0.517 µM [rising, full curve, poor fit] | 
COc1ccc(C(=O)CC(=O)Nc2ccc([N+](=O)[O-])cc2)cc1 | -18.9% |  | 11.6 µM [rising, partial curve]
C=CCNC(=O)c1onc(CSc2ccc(F)cc2)c1C(=O)NCCOC | -14.7% |  | 0.731 µM [falling, single point]

Some of the entries so far, as comma-separated lines.
Compound,cell number change,AC50 [1],AC50 [2]
O=C(CCS(=O)(=O)c1cccc2nonc12)Nc1cccc2c1CCCC2,33.4%,"29.1 µM [rising, single point]","29.1 µM [rising, single point]"
CC(Oc1ccc(Cl)cc1)C(=O)N(C)CC(=O)Nc1ccc(N2CCOCC2)cc1 (centres undefined),27%,,"18.4 µM [rising, partial curve]"

— PubChem BioAssay AID2685 (National Center for Advancing Translational Sciences (NCATS), 2010)
